Measured values published in the supplement of paper PMC10849652.
The other results are listed elsewhere or left out.

Sequences of proteins named here, by UniProt entry; tags and fusion partners are left off. A change or cut given only in a name is not applied to a line headed by its entry.
UniProt P14550: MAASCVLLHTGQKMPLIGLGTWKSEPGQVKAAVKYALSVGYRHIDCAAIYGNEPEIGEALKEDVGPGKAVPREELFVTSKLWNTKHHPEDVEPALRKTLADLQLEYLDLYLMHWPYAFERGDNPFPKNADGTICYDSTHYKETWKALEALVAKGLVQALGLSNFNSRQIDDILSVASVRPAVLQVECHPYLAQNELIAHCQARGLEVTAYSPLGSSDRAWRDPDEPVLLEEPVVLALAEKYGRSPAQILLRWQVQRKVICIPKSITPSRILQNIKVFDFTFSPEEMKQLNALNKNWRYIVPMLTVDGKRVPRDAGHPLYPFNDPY
UniProt Q9BRQ8: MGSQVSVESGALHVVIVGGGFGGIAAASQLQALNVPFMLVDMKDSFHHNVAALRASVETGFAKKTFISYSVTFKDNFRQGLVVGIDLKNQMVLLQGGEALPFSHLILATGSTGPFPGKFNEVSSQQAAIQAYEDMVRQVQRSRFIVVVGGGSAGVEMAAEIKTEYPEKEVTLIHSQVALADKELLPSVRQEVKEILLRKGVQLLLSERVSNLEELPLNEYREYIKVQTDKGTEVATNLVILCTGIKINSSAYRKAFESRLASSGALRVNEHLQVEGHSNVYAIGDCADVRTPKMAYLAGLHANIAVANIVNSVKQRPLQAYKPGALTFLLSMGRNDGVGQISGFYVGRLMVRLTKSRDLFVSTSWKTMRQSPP
UniProt Q96SZ5, whole entry, looked up: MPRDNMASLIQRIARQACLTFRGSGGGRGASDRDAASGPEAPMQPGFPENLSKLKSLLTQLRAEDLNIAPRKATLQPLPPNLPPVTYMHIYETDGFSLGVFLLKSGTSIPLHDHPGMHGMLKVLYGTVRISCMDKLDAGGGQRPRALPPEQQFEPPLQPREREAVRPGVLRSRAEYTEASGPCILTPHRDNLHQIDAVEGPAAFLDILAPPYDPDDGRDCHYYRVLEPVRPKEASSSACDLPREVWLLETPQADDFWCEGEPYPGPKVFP
UniProt P11766: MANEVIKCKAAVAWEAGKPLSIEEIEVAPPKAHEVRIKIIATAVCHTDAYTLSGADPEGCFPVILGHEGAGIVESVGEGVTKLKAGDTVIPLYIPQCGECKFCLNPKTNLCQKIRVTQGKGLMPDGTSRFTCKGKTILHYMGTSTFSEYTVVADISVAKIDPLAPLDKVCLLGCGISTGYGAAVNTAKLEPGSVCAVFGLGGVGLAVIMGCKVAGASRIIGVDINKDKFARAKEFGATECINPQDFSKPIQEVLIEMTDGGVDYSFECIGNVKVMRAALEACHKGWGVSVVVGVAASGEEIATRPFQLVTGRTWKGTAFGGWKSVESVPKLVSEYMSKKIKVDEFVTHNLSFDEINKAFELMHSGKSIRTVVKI
UniProt Q12904: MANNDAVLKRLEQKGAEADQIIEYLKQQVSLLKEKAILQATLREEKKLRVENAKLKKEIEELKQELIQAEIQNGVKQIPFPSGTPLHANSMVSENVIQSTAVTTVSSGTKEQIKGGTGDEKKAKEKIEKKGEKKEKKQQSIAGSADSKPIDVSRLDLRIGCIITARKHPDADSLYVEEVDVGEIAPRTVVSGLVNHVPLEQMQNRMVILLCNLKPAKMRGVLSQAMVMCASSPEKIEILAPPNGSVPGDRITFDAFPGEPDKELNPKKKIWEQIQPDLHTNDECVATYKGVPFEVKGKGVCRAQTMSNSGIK
UniProt P04075: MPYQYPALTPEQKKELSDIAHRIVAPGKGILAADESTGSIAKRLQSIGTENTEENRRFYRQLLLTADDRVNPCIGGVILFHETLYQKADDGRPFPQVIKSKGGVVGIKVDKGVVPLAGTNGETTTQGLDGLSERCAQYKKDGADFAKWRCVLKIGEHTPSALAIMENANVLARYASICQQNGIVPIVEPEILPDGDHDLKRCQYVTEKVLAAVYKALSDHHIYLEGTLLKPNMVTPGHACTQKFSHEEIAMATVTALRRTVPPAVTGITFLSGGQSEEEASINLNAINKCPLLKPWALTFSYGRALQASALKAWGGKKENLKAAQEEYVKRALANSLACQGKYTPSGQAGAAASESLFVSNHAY
UniProt Q9NX46: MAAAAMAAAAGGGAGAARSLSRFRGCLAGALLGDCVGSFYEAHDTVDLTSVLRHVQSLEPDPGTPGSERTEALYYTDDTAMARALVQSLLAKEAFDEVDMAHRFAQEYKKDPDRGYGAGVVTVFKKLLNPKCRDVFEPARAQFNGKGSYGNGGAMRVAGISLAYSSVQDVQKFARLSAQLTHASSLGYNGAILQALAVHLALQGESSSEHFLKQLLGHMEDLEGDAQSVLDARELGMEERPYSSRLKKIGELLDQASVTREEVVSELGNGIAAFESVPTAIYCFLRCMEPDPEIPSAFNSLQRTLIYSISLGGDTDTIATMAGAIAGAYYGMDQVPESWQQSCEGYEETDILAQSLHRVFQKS
UniProt Q9H6U8: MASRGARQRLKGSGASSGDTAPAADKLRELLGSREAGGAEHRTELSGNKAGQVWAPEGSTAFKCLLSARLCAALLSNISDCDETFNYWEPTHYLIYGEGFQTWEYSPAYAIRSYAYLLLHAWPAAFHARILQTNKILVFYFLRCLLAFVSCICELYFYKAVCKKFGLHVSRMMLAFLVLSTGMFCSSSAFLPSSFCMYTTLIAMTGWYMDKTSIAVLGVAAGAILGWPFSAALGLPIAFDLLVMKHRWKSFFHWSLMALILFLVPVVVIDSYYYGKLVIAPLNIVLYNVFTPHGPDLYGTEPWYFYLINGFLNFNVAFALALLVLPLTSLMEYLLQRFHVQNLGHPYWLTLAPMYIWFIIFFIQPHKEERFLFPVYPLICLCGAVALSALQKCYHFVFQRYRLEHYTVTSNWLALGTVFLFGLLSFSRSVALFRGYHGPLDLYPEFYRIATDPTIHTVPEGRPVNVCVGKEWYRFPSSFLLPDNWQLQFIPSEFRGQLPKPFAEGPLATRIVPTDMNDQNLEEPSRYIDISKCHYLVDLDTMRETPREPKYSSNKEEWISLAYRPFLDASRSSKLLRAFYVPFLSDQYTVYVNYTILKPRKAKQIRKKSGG
UniProt Q9NXW9: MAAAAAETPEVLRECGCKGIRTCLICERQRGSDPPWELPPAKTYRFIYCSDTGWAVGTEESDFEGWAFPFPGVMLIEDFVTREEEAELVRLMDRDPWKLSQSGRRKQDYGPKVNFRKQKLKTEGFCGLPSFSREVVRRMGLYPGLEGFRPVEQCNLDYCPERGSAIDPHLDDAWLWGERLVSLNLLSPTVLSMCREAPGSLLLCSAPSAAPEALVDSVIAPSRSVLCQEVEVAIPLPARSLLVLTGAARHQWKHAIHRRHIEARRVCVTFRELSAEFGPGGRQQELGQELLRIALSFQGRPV
UniProt P17707: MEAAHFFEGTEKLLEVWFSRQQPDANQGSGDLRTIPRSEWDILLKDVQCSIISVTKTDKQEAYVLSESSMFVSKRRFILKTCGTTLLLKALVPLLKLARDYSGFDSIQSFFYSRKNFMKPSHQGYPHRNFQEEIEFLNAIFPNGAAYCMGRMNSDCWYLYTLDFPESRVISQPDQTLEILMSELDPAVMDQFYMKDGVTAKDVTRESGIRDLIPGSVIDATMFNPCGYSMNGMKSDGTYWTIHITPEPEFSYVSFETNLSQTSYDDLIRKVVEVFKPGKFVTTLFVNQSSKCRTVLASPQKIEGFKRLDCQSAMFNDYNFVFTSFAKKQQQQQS
UniProt P51649: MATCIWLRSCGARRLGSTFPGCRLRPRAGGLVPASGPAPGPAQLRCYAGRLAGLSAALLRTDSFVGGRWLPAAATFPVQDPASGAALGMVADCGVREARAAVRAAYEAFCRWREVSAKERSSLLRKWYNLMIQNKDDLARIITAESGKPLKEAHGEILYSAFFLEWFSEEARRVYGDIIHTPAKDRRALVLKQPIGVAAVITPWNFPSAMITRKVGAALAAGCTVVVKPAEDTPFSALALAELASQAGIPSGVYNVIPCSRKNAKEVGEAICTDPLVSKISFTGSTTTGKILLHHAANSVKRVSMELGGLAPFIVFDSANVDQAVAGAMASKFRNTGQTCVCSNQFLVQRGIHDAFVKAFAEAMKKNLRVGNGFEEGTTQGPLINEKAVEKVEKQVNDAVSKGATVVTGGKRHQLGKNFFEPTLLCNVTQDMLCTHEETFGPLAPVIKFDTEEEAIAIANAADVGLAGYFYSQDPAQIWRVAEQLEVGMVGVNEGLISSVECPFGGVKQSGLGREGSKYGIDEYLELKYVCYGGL
UniProt P55263: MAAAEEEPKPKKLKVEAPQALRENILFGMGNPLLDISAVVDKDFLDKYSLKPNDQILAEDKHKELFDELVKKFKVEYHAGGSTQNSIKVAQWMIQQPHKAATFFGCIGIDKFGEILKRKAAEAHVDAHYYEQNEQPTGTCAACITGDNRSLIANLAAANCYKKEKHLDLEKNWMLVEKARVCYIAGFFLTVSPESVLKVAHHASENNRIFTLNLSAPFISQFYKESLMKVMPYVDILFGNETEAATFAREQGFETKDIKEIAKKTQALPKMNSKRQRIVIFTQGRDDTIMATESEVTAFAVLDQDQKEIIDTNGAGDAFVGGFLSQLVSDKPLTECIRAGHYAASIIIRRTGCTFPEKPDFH
UniProt O00116: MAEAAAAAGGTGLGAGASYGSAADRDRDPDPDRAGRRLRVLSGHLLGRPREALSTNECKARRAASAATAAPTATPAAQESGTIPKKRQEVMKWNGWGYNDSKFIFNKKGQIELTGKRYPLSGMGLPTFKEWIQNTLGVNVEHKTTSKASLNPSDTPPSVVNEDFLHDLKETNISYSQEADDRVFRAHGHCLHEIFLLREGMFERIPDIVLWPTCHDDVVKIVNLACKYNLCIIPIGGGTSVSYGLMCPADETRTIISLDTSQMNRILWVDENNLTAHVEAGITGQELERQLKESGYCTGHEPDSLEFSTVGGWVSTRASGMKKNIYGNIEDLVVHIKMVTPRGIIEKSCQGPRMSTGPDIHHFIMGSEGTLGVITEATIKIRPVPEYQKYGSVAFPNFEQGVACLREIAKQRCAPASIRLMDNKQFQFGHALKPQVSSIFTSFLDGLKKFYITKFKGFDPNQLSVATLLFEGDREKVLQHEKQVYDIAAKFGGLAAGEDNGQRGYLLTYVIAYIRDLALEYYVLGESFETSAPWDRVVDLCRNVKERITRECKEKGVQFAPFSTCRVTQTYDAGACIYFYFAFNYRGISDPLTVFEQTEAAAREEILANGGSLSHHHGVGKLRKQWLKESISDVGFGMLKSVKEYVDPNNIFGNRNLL
UniProt P00352: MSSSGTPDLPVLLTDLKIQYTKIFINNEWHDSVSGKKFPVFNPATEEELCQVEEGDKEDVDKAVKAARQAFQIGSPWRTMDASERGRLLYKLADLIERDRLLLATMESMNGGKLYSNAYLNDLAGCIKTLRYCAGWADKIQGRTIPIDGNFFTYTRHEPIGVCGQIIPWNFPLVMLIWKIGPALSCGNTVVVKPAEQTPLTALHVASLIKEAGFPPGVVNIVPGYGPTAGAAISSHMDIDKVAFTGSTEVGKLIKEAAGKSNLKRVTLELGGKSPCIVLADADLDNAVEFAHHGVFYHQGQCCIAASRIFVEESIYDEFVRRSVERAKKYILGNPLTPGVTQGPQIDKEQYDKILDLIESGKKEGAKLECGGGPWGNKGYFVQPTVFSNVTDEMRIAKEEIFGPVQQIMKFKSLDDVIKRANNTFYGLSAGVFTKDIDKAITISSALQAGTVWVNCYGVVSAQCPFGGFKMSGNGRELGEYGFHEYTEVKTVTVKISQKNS
UniProt P30837: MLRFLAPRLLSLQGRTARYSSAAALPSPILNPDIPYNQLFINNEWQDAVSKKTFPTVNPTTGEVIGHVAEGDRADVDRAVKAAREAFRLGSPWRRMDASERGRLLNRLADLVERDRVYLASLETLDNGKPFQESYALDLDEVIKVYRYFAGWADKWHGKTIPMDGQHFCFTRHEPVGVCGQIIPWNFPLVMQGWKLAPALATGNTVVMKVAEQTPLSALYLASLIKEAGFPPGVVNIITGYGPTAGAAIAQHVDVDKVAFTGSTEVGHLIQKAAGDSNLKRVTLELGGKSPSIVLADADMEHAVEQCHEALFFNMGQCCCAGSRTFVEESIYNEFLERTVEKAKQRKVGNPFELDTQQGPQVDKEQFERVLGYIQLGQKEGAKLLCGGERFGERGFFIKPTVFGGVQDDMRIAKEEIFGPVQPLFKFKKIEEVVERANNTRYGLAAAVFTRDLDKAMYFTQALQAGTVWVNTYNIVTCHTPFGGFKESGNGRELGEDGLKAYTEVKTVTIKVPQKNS
UniProt Q13155: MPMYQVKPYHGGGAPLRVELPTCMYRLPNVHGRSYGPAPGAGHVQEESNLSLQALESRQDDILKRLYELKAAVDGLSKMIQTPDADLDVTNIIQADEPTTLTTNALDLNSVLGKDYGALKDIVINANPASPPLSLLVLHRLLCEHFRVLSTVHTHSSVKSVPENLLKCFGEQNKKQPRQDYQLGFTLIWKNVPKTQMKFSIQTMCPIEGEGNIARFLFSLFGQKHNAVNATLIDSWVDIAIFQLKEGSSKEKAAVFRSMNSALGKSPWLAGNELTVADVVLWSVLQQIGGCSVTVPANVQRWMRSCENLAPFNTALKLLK

compound: C#Cc1cccc(Nc2ncnc3cc(OCCOC)c(OCCOC)cc23)c1 [erlotinib]; assay: log2 fold change, soluble protein after heating vs DMSO (PISA); higher = thermal stabilisation; K562 cells, 10 uM, 30 min; active = over 0.2 and 3.5 SD of the protein, either way, in both replicates (recomputed)
Method in brief: (§1)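 Soluble protein was quantified by TMTpro 16plex LC-MS/MS after channel sums were equalised. It was obtained as the supernatant after 21,000xg for 90 min from pooled aliquots of K562 cells (2×10^6 cells/mL, 10 μM compound, 30 min) heated for 3 min across 48°C-58°C and extracted in PBS with 0.5% NP-40 at 4°C. Thermal stability values are relative to control samples and come from duplicates. They are given as log2 fold changes.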

log2 fold change, inactive:
AKR1A1 (UniProt P14550) -0.01
AIFM2 (UniProt Q9BRQ8) -0.038
AKR1B1 (UniProt P15121) 0.075
ADO (UniProt Q96SZ5) 0.04
ADH5 (UniProt P11766) -0.012
AIMP1 isoform 2 (UniProt Q12904) 0.036
ALDOA isoform 2 (UniProt P04075) -0.009
ADPRHL2 (UniProt Q9NX46) 0.03
ALG9 isoform 3 (UniProt Q9H6U8) 0.022

compound: C/C(=N\NC(=O)C1=CC(=CC=C1)S(=O)(=O)N2CCOCC2)/C3=C(C=CC(=C3)Cl)O; assay: as above
Method in brief: as §1

log2 fold change, inactive:
ALKBH4 (UniProt Q9NXW9) 0.084
AMD1 (UniProt P17707) -0.004
AFDN isoform 5 (UniProt P55196) 0.101
ALDH5A1 isoform 2 (UniProt P51649) 0.042
ADK (UniProt P55263) -0.034
AHCYL1 (UniProt O43865) -0.032
AHCY (UniProt P23526) 0.018
AGPS (UniProt O00116) 0.055
ALDH1A1 (UniProt P00352) 0.049
AKT2 (UniProt P31751) 0.096
AHSA1 (UniProt O95433) 0.011
ALDH2 (UniProt P05091) 0.121
AGPAT3 isoform 3 (UniProt Q9NRZ7) -0.008
AK2 isoform 2 (UniProt P54819) -0.035
ALKBH3 (UniProt Q96Q83) -0.086
ADPGK (UniProt Q9BRR6) 0
ALDH1B1 (UniProt P30837) 0.073
AIDA (UniProt Q96BJ3) 0.062
AHCTF1 isoform 2 (UniProt Q8WYP5) -0.023
ALG14 (UniProt Q96F25) 0.018
AK4 (UniProt P27144) 0.014
AIMP2 (UniProt Q13155) -0.091
ALG13 (UniProt Q9NP73) 0.101
AKR1A1 (UniProt P14550) 0.02
AIFM2 (UniProt Q9BRQ8) 0.045
AKR1B1 (UniProt P15121) 0.006
ADO (UniProt Q96SZ5) -0.042
ADH5 (UniProt P11766) 0.034
AIMP1 isoform 2 (UniProt Q12904) -0.03
ALDOA isoform 2 (UniProt P04075) 0.004
ADPRHL2 (UniProt Q9NX46) 0.024
ALG9 isoform 3 (UniProt Q9H6U8) 0.006

compound: C1=CC(=C(C=C1Cl)C2=NC3=NC=CN=C3C(=N2)NC4=CC=NC=C4)F; assay: as above
Method in brief: as §1

log2 fold change, inactive:
ALKBH4 (UniProt Q9NXW9) 0.018
AMD1 (UniProt P17707) 0.039
AFDN isoform 5 (UniProt P55196) 0.021
ALDH5A1 isoform 2 (UniProt P51649) 0.057
ADK (UniProt P55263) 0.06
AHCYL1 (UniProt O43865) -0.008
AHCY (UniProt P23526) 0.028
AGPS (UniProt O00116) 0.092
ALDH1A1 (UniProt P00352) 0.098
AKT2 (UniProt P31751) 0.094
AHSA1 (UniProt O95433) 0.081
ALDH2 (UniProt P05091) 0.039
AGPAT3 isoform 3 (UniProt Q9NRZ7) 0.028
AK2 isoform 2 (UniProt P54819) 0.023
ALKBH3 (UniProt Q96Q83) 0.016
ADPGK (UniProt Q9BRR6) -0.08
ALDH1B1 (UniProt P30837) 0.066
AIDA (UniProt Q96BJ3) 0.102
AHCTF1 isoform 2 (UniProt Q8WYP5) -0.111
ALG14 (UniProt Q96F25) -0.128
AK4 (UniProt P27144) 0.108
AIMP2 (UniProt Q13155) -0.364
ALG13 (UniProt Q9NP73) 0.073
AKR1A1 (UniProt P14550) 0.056
AIFM2 (UniProt Q9BRQ8) -0.001
AKR1B1 (UniProt P15121) 0.062
ADO (UniProt Q96SZ5) 0.08
ADH5 (UniProt P11766) 0.05
AIMP1 isoform 2 (UniProt Q12904) -0.072
ALDOA isoform 2 (UniProt P04075) 0.031
ADPRHL2 (UniProt Q9NX46) 0.122
ALG9 isoform 3 (UniProt Q9H6U8) -0.004
